# From the supplement of paper PMC8728848
# The other results are listed elsewhere or left out.
# B1: OS9 (Arabidopsis thaliana) (protein)
# chain: MRGSHHHHHHGMASMTGGQQMGRDLYDDDDKSRLQIFPAHLVGTFSRNNREPKYKIEFLPEDSPFHPGDNLESMVMLDKHGNRFLCYLPKEEKATSGWTSSQQNISTVMMETQQLVKLKTPDELLQPLSEKCLFRQEGWWSYEFCHQKYVRQLHVEDENKIVQEFFLGTFDPEATAAFNQTVSDASTDASQRYHSHVYTNGTTCDLTGSPAEVEVRFVCAETRAMVTSITELSTCKYALTVQCPTLCKHPLFQLEKPVSHTIHCNAIPVEEDATRNKEEQAVDESPKMIADS
# Assays:
# Experiment in all cases: glycan array binding signal (z-score within array); higher = stronger binding
# Conditions in all cases: glycan notation: IUPAC condensed, linker removed; mutation: R201A
# [1] = molecular target: Fuc(a1-2)[GalNAc(b1-3)]Gal
# How it was run: (§1)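 Glycan array binding is given as a within-array Z-score, which can be read as non-binding when negative. The arrays, 3228 of them, came from the Consortium for Functional Glycomics database and were retained only where the protein sequence was available. Z-scores were averaged across arrays of the same protein sequence at different concentrations or buffers and across linkers.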
# [2] = molecular target: Fuc(a1-3)GlcNAc
# How it was run: as §1
# [3] = molecular target: Fuc(a1-3)[Gal(b1-4)]Glc6S
# How it was run: as §1
# [4] = molecular target: Fuc(a1-3)[Gal(b1-4)]GlcNAc
# How it was run: as §1
# [5] = molecular target: Fuc(a1-3)[Gal(b1-4)]GlcNAc(b1-2)Man
# How it was run: as §1
# [6] = molecular target: Fuc(a1-3)[Gal(b1-4)]GlcNAc(b1-2)Man(a1-3)[Fuc(a1-3)[Gal(b1-4)]GlcNAc(b1-2)Man(a1-6)]Man(b1-4)GlcNAc(b1-4)GlcNAc
# How it was run: as §1
# [7] = molecular target: Fuc(a1-3)[Gal(b1-4)]GlcNAc(b1-2)Man(a1-3)[Fuc(a1-3)[Gal(b1-4)]GlcNAc(b1-2)Man(a1-6)]Man(b1-4)GlcNAc(b1-4)[Fuc(a1-6)]GlcNAc
# How it was run: as §1
# [8] = molecular target: Fuc(a1-3)[Gal(b1-4)]GlcNAc(b1-3)Gal(b1-3)[Fuc(a1-4)]GlcNAc
# How it was run: as §1
# [9] = molecular target: Fuc(a1-3)[Gal(b1-4)]GlcNAc(b1-3)Gal(b1-4)[Fuc(a1-3)]GlcNAc
# How it was run: as §1
# [10] = molecular target: Fuc(a1-3)[Gal(b1-4)]GlcNAc(b1-3)Gal(b1-4)[Fuc(a1-3)]GlcNAc(b1-3)Gal(b1-4)[Fuc(a1-3)]GlcNAc
# How it was run: as §1
# [11] = molecular target: Fuc(a1-3)[Gal(b1-4)]GlcNAc(b1-3)GalNAc
# How it was run: as §1
# [12] = molecular target: Fuc(a1-3)[Gal(b1-4)]GlcNAc(b1-6)GalNAc
# How it was run: as §1
# [13] = molecular target: Fuc(a1-3)[Gal(b1-4)]GlcNAc(b1-6)[Gal(b1-3)GlcNAc(b1-3)]Gal(b1-4)Glc
# How it was run: as §1
# [14] = molecular target: Fuc(a1-3)[Gal(b1-4)]GlcNAc6S
# How it was run: as §1
# [15] = molecular target: Fuc(a1-3)[Gal3S(b1-4)]Glc
# How it was run: as §1
# [16] = molecular target: Fuc(a1-3)[Gal3S(b1-4)]GlcNAc
# How it was run: as §1
# [17] = molecular target: Fuc(a1-3)[Gal3S(b1-4)]GlcNAc6S
# How it was run: as §1
# [18] = molecular target: Fuc(a1-3)[GalNAc(b1-4)]GlcNAc
# How it was run: as §1
# [19] = molecular target: Fuc(a1-3)[GalNAc(b1-4)]GlcNAc6S
# How it was run: as §1
# [20] = molecular target: Fuc(a1-4)GlcNAc
# How it was run: as §1
# [21] = molecular target: Fuc(b1-3)GlcNAc
# How it was run: as §1
# [22] = molecular target: Gal(a1-2)Gal
# How it was run: as §1
# [23] = molecular target: Gal(a1-3)Gal
# How it was run: as §1
# [24] = molecular target: Gal(a1-3)Gal(b1-3)GlcNAc
# How it was run: as §1
# [25] = molecular target: Gal(a1-3)Gal(b1-3)GlcNAc(b1-2)Man
# How it was run: as §1
# [26] = molecular target: Gal(a1-3)Gal(b1-3)GlcNAc(b1-2)Man(a1-3)[Gal(a1-3)Gal(b1-3)GlcNAc(b1-2)Man(a1-6)]Man(b1-4)GlcNAc(b1-4)GlcNAc
# How it was run: as §1
# [27] = molecular target: Gal(a1-3)Gal(b1-3)GlcNAc(b1-3)GalNAc
# How it was run: as §1
# [28] = molecular target: Gal(a1-3)Gal(b1-3)GlcNAc(b1-6)GalNAc
# How it was run: as §1
# [29] = molecular target: Gal(a1-3)Gal(b1-3)[Fuc(a1-4)]GlcNAc(b1-2)Man(a1-3)[Gal(a1-3)Gal(b1-3)[Fuc(a1-4)]GlcNAc(b1-2)Man(a1-6)]Man(b1-4)GlcNAc(b1-4)GlcNAc
# How it was run: as §1
# [30] = molecular target: Gal(a1-3)Gal(b1-4)Glc
# How it was run: as §1
binder,measurement,setting,value
B1,glycan array binding signal (z-score),[1],-0.349
same,glycan array binding signal (z-score),[2],-0.457
same,glycan array binding signal (z-score),[3],-0.113
same,glycan array binding signal (z-score),[4],-0.184
same,glycan array binding signal (z-score),[5],-0.154
same,glycan array binding signal (z-score),[6],-1.38
same,glycan array binding signal (z-score),[7],3.48
same,glycan array binding signal (z-score),[8],0.176
same,glycan array binding signal (z-score),[9],0.261
same,glycan array binding signal (z-score),[10],0.538
same,glycan array binding signal (z-score),[11],-0.955
same,glycan array binding signal (z-score),[12],1.02
same,glycan array binding signal (z-score),[13],0.467
same,glycan array binding signal (z-score),[14],-0.678
same,glycan array binding signal (z-score),[15],-0.61
same,glycan array binding signal (z-score),[16],0.043
same,glycan array binding signal (z-score),[17],-0.151
same,glycan array binding signal (z-score),[18],0.67
same,glycan array binding signal (z-score),[19],-0.68
same,glycan array binding signal (z-score),[20],2.18
same,glycan array binding signal (z-score),[21],0.293
same,glycan array binding signal (z-score),[22],0.805
same,glycan array binding signal (z-score),[23],0.103
same,glycan array binding signal (z-score),[24],-0.095
same,glycan array binding signal (z-score),[25],1.71
same,glycan array binding signal (z-score),[26],0.219
same,glycan array binding signal (z-score),[27],1.65
same,glycan array binding signal (z-score),[28],-0.999
same,glycan array binding signal (z-score),[29],1.34
same,glycan array binding signal (z-score),[30],0.911

# An excerpt taken from the entries so far:
binder,measurement,setting,value
B1,glycan array binding signal (z-score),[5],-0.154
same,glycan array binding signal (z-score),[6],-1.38
